Measured values published in patent publication US10865191B2, “Heterocyclic compounds useful as modulators of TNF alpha” (BRISTOL-MYERS SQUIBB COMPANY, priority 2015, dated 2020).
Some entries share one result that the patent states for a list of compounds.

Protein sequences, listed by entry. Tags and fused reporters are not part of them. Residues count along the entry.
UniProt P01375, 77-233 limits assumed: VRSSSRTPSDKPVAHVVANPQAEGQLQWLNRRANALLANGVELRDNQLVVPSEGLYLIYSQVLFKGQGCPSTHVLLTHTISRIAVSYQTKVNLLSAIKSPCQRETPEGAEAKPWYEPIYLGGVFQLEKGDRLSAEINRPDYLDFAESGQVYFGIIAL

Molecular target: TNFα (Homo sapiens, UniProt P01375)
Test: TNF induced HEK-Blue assay (NF-kB-driven secreted alkaline phosphatase reporter)
Type: cell-based
Conditions: TNFα 0.5 ng/mL, HEK-Blue-CD40L cells, 18 h; read-out: IC50 values measured in the TNF induced HEK-Blue assay
In short: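 HEK-Blue-CD40L cells (NF-kB-driven SEAP reporter), 20,000/well, added after 30 min pre-incubation of compound (0.004–25 μM final) with TNFα 0.5 ng/mL final at 37 °C; 18 h incubation. SEAP read with QUANTI-Blue at 620 nm; IC50 from 4-parameter logistic fit, normalized to unstimulated and stimulated DMSO controls.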

SMILES | IC50 [µM]
CC(C)(O)c1ccc(-c2cc3c(NC4(c5ccccc5F)CC4)c(Cl)cnc3cc2F)cc1 [Example 279, 2-(4-(3-chloro-7-fluoro-4-((1-(2-fluorophenyl)cyclopropyl)amino)quinolin-6-yl)phenyl) propan-2-ol] | ≤ 25
C[C@@H](Nc1c(Cl)cnc2ccc(-c3ccncc3)cc12)c1cc(-c2cncnc2)ccc1F [Example 540, (R)-3-chloro-N-(1-(2-fluoro-5-(pyrimidin-5-yl)phenyl)ethyl)-6-(pyridin-4-yl)quinolin-4-amine] | ≤ 25
Cc1nc2ccc(-c3cnc(C(C)(C)O)nc3)cc2c(C(O)C(C)CC(C)C)c1Cl (single isomer, unassigned) [Example 355, 1-(3-Chloro-6-(2-(2-hydroxypropan-2-yl)pyrimidin-5-yl)-2-methylquinolin-4-yl)-2,4-dimethylpentan-1-ol] | ≤ 25
C[C@@H](Nc1c(Cl)cnc2ccc(-c3cnc(C(C)(C)O)nc3)cc12)c1cc(S(C)(=O)=O)ccc1F [Example 425, (R)-2-(5-(3-chloro-4-((1-(2-fluoro-5-(methylsulfonyl)phenyl)ethyl)amino)quinolin-6-yl)pyrimidin-2-yl)propan-2-ol] | ≤ 25
C[C@H](Nc1c(Cl)cnc2ccc(-c3cnc(C(C)(C)O)nc3)cc12)[C@H]1CCCN(C(N)=O)C1 [Example 103, (S)-3-((S)-1-((3-chloro-6-(2-(2-hydroxypropan-2-yl)pyrimidin-5-yl)quinolin-4-yl)amino)ethyl)piperidine-1-carboxamide] | ≤ 25
CC(C)(O)c1ncc(-c2ccc3ncc(Cl)c(NC(c4ccccc4F)C(F)F)c3c2)cn1 (single isomer, unassigned) [Example 55, 2-(5-(3-chloro-4-((2,2-difluoro-1-(2-fluorophenyl)ethyl)amino)quinolin-6-yl)pyrimidin-2-yl)propan-2-ol] | ≤ 25
CCN(Cc1c(Cl)cnc2ccc(-c3cnc(C(C)(C)O)nc3)cc12)c1ccccc1F [Example 68, 2-(5-(3-chloro-4-((ethyl(2-fluorophenyl)amino)methyl)quinolin-6-yl)pyrimidin-2-yl)propan-2-ol] | ≤ 25
CC(Nc1c(Cl)cnc2cc(F)c(-c3cc(F)c(C(C)(C)O)c(F)c3)cc12)c1ccccc1F (racemic) [Example 267, 2-(4-(3-chloro-7-fluoro-4-((1-(2-fluorophenyl)ethyl)amino)quinolin-6-yl)-2,6-difluorophenyl)propan-2-ol] | ≤ 25
CC(Nc1c(Cl)cnc2cc(F)c(-c3ccc(C4(CO)CC4)cc3)cc12)c1ccccc1F (stereo not shown) [Example 265, (1-(4-(3-chloro-7-fluoro-4-((1-(2-fluorophenyl)ethyl)amino)quinolin-6-yl)phenyl)cyclopropyl) methanol] | ≤ 25
Cc1ccc(F)c(C(C)Nc2c(Cl)cnc3ccc(-c4cnc(N5CCNC(=O)C5)nc4)cc23)n1 (stereo not shown) [Example 484, 4-(5-(3-chloro-4-((1-(3-fluoro-6-methylpyridin-2-yl)ethyl)amino)quinolin-6-yl)pyrimidin-2-yl)piperazin-2-one] | ≤ 25
CC(Nc1c(Cl)cnc2cc(F)c(-c3cnc(C(O)CO)nc3)cc12)c1ccccc1F (single isomer, unassigned) [Example 596, 1-(5-(3-chloro-7-fluoro-4-((1-(2-fluorophenyl)ethyl)amino)quinolin-6-yl)pyrimidin-2-yl)ethane-1,2-diol] | ≤ 25
C[C@@H](Nc1c(Cl)cnc2ccc(-c3cnc(C(C)(C)O)nc3)cc12)c1cc(S(N)(=O)=O)ccc1F [Example 426, (R)-3-(1-((3-chloro-6-(2-(2-hydroxypropan-2-yl)pyrimidin-5-yl)quinolin-4-yl)amino)ethyl)-4-fluorobenzenesulfonamide] | ≤ 25
C[C@@H](Nc1c(Cl)cnc2ccccc12)c1cc(-c2cnn(Cc3ccccc3)c2)ccc1F [Example 466, (R)—N-(1-(5-(1-benzyl-1H-pyrazol-4-yl)-2-fluorophenyl)ethyl)-3-chloroquinolin-4-amine] | ≤ 25
